Reference: the supplement of paper PMC12009310
Counter-ions that a name gives are not always drawn. ± gives the standard deviation of the averaged measurements. Some of the results follow. Plates or batches differ in their baseline, so values are only roughly comparable.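 The cells are a mouse kidney inner medullary collecting duct line, silenced either for the ciliary gene Rpgrip1l or with a non-targeting control siRNA.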

tested on: mIMCD3; test: robust z score of cell number vs plate controls; higher = more cells (less cytotoxic); conditions: 10 µM; 48 h; siRNA: siRpgrip1l

CN(C)c1nc(N)c(C(=O)Nc2cccnc2)nc1Cl [ACDPP hydrochloride] and COC(=O)C1=C(C)NC(C)=C(C(=O)OC)C1c1ccccc1[N+](=O)[O-] [Nifedipine] are within error of each other in “robust z score of cell number” value: -17.1 ± 9.7 for the first, -9.47 ± 1.4 for the second.

COc1cc(C[C@H]2C(=O)OC[C@@H]2Cc2ccc(OC)c(OC)c2)ccc1O [Arctigenin] and O=C(/C=C/c1ccc(O)c(O)c1)O[C@H](Cc1ccc(O)c(O)c1)C(=O)O [Rosmarinic acid] are within error of each other in “robust z score of cell number” value: -19.8 ± 15 for the first, -11.8 ± 6.8 for the second.

CCCCCCCCCCC(C)(C)C(=O)Nc1c(OC)cc(OC)cc1OC and C[C@]12CC[C@@H]3c4ccc(O)cc4C[C@@H](CCCCCCCCC[S+]([O-])CCCC(F)(F)C(F)(F)F)[C@H]3[C@@H]1CC[C@@H]2O (some centres undefined) are within error of each other in “robust z score of cell number” value: -39 ± 24 for the first, -22.3 ± 14 for the second.

Compared with CCOC(=O)[C@@H](C)Oc1cccc2c(=O)n(CC(=O)Nc3ccc4c(c3)OCCO4)ccc12, C=CCc1cccc(/C=N/NC(=O)CN2CCN(Cc3ccccc3)CC2)c1O is lower in “robust z score of cell number” value: -4.73 ± 1.6 for the first, -32.5 ± 10 for the second.

N#C/C(=C(/N)Sc1ccc(N)cc1)c1ccccc1C(F)(F)F and COc1ccccc1C1(O)CCN(CCCn2c3ccccc3c3ccccc32)CC1 [NNC 05-2090 hydrochloride] are within error of each other in “robust z score of cell number” value: -53 ± 64 for the first, -31.7 ± 30 for the second.

CCS(=O)(=O)N(C)[C@H]1c2cc(C#N)ccc2OC(C)(C)[C@@H]1O (racemic) [Chromanol 293B] and COc1ccccc1N1CCN(CCCNc2cc(=O)n(C)c(=O)n2C)CC1 [Urapidil hydrochloride] are within error of each other in “robust z score of cell number” value: -37.9 ± 49 for the first, -3.72 ± 5.6 for the second.

COc1ccc(-n2[nH]c3c4c(ncc3c2=O)CCCCC4)cc1 and CC(C)NCC(O)COc1ccccc1-n1cccc1 (centres undefined) [Isamoltane hemifumarate] are within error of each other in “robust z score of cell number” value: -2.79 ± 4 for the first, -4.83 ± 3 for the second.
